These are yes or no findings as the source states them, for the method shown. Binding seen in cells or lysates may run through a third protein. Some results given as binding are weak or reduced against the parent protein; the word gives no strength. Tags and fused reporters may be left off the sequences shown. One block for each binder: values may come before it.
Columns and labels:
[1] = molecular target: T1, Myc-USP37 (ubiquitin-specific protease 37) (human) (UniProt Q86T82); test: co-IP; 293T cells transfected with Myc-Usp37 and/or Flag-14-3-3γ; reciprocal co-IP, anti-Myc IP and anti-Flag blot; lysates with antibodies at 4°C overnight, protein-A/G beads
T1 sequence: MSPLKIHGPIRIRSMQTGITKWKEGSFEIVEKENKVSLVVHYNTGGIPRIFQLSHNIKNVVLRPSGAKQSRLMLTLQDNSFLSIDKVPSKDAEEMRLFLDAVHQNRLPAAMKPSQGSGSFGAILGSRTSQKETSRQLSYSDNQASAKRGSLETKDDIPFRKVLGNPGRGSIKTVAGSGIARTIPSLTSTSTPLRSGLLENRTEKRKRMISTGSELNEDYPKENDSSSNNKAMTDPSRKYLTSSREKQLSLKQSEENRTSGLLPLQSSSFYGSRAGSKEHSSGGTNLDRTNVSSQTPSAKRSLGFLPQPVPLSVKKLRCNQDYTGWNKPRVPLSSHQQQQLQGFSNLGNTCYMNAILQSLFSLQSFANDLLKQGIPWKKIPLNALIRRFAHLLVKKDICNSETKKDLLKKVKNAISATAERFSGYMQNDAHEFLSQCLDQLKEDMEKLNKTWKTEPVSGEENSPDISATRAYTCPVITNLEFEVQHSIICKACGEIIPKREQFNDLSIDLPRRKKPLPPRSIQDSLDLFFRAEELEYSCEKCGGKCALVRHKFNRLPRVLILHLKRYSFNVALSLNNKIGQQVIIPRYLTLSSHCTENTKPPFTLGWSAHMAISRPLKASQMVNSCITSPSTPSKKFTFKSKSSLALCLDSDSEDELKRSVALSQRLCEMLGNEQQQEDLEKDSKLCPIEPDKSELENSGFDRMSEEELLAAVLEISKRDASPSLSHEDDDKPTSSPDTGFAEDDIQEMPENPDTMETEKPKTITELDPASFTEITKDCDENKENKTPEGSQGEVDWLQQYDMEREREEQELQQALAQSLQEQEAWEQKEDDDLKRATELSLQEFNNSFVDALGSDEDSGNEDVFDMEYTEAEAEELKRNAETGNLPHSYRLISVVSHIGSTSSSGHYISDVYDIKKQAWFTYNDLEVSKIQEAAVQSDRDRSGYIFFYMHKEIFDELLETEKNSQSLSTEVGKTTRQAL

[2] = molecular target: T1, Myc-USP37 (ubiquitin-specific protease 37) (human); test: co-IP; HA-14-3-3 isoforms transfected into 293T cells together with Myc-USP37
[3] = molecular target: T2, endogenous 14-3-3γ (human (endogenous in 293T and A549)) (UniProt P61981); test: co-IP; lysates of 293T cells overexpressing Myc-USP37; IP with an anti-14-3-3γ antibody (endogenous 14-3-3γ)
T2 sequence: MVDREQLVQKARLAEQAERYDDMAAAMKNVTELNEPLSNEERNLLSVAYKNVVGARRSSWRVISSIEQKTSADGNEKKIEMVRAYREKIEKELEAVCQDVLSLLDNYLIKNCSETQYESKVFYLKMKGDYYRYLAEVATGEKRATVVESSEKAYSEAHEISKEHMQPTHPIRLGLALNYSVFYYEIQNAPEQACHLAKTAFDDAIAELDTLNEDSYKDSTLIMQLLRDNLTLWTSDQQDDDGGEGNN

GST-14-3-3γ (murine) = molecular target: T3, GST-14-3-3γ (murine) (UniProt P61982); test: pull-down; GST-14-3-3γ on glutathione-Sepharose beads incubated with lysates of 293T cells overexpressing Myc-USP37; immunoblot; only the target purified
T3 sequence: T2 sequence

binding [1]: binds
B1: Flag-14-3-3γ (protein, UniProt P61982 1-247)
chain: T2 sequence

binding [2]: binds
B2: HA-14-3-3γ (protein, UniProt P61982 1-247)
chain: T2 sequence

binding [3]: binds
binding (GST-14-3-3γ (murine)): binds
B3: Myc-USP37 (ubiquitin-specific protease 37) (enzyme, UniProt Q86T82-1 1-979)
chain: T1 sequence
